# Measurements taken from PubChem BioAssay AID1347076 (National Center for Advancing Translational Sciences (NCATS), 2019).
# Where “and” joins values, the source holds several entries; their conditions need not be identical. Equal values may be shown once. About 13,000 (3.2%) of roughly 400,000 compounds were called active. Inconclusive means that the source gave no clear call. Such entries were picked first, then a sample of the others. The call rests on the fitted dose curve; in most records, active means well fitted cell-killing curve with a large enough effect; inconclusive means small, poorly fitted or top-dose-only effect, or effect the other way; inactive means flat fitted curve, though single readings scatter. Potencies of inconclusive entries are doubtful fits and often do not repeat.
# Assay: qHTS assay for MDR1-selective chemotherapeutics: Primary screen using the drug-selected MDR subline cells KB-V1; further: nearly all actives have a fitted effect of over 60% in size
# Conditions: KB-V1 MDR cells viability, CellTiter-Glo, 72 h; activity change, negative = cytotoxicity: at 46.1 µM (top of the series)
# Summary of the method: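 Cytotoxicity via CellTiter-Glo luminescence after 72 h compound exposure at 37 degrees C. Cells: drug-selected KB-V1 line, DMEM phenol-red free plus 10% FBS. Compounds tested at multiple concentrations; normalized data fitted to concentration-effect curves.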
# On the % scale 0 is the no-effect control and ±100 the full control effect; potency means the concentration at half of the fitted maximal effect.
SMILES,Potency,"activity change, negative = cytotoxicity"
Cc1ccc(OS(=O)(=O)c2ccc(-c3csc(C)n3)s2)c(C)c1,"inconclusive: 29.1 µM [cytotoxic, single point]",
Cc1ccc(C2=NN(Cc3nnc(-c4ccccc4)o3)C(=O)SC2)cc1,active: 13 µM,
c1ccc(-c2nc3c4ccccc4ccn3c2CN2CCCCC2)cc1,inactive,
Cc1oc(S(=O)(=O)N2CCCC2)cc1C(=O)Nc1ccc(F)cc1,"inconclusive: 29.1 µM [cytotoxic, single point]",
CN(C(=O)CSc1nc2ccc(NC(=O)c3ccc(F)cc3)cc2s1)c1ccccc1,"inconclusive: 23.1 µM [cytotoxic, single point]",
Cc1cnccc1CN(C)Cc1nc(Cc2ccccc2Cl)no1,active: 9.2 µM,
Nc1ncnc2c1ncn2[C@@H]1O[C@H](CNC(=O)[C@H]2CCC(=O)N2)[C@@H](O)[C@H]1O,inactive,
Cc1cccc(C)c1-n1nnnc1C1(C)CCC(=O)N1CC1CCCCC1 (centres undefined),"inconclusive: 11.6 µM [cytotoxic, partial curve]",
O=C(NCc1cccc(C(F)(F)F)c1)c1cccc2c1C(=O)c1ccc(N3CCC(Cc4ccccc4)CC3)cc1S2(=O)=O,inactive,
On1nnc2c3ccccc3c3ccccc3c21,inactive,
Cc1ccccc1CCNC(=O)c1cc2ccccn2n1,inactive,
O=C1[C@H](Cc2ccccc2)NCCCC[C@@H](c2ccc(Cl)cc2)N1Cc1ccccc1,"inconclusive: 13 µM [cytotoxic, partial curve, poor fit] and active: 23.1 µM",
CCN1CCN(c2ccc(N=Cc3ccc(O)cc3O)cc2)CC1,inactive,
O=C(Nc1ccc(CN2CCOCC2)cc1)c1ccccc1F,inactive,
CC(C)CC(=O)Nc1ccc(-c2nc3ccccc3c(=O)[nH]2)cc1,"inconclusive: 18.4 µM [cytotoxic, partial curve]",
CCCCC(=O)NC(c1ccc([N+](=O)[O-])cc1)c1c(O)ccc2ccccc12 (centres undefined),active: 16.4 µM,
COc1ccc(NC(=O)CCS(=O)(=O)c2cc(Br)cc3c2N(C(C)=O)CC3)c(OC)c1,"inconclusive: 29.1 µM [rising, single point]",
COc1ccc2[nH]c(=O)c(CN(C(=O)NC3CCCCC3)C3CCCC3)cc2c1,active: 14.6 µM,
CCC(C)C(NC(=O)C1CCC(C)CC1)C(=O)NC(C(=O)OC)C(C)C (centres undefined),"inconclusive: 6.51 µM [cytotoxic, partial curve]",
Nc1cccc(C(=O)OCC(=O)c2ccccc2)c1,inactive,
COc1ccc(OC)c(CCNC(=O)Cn2nc(C)c3c(C)n(-c4ccccc4)nc3c2=O)c1,inactive,
O=C(NCc1ccco1)c1cc(S(=O)(=O)N2CCCCC2)ccc1Cl,inactive,
CC1=NN(C(=O)c2ccccc2)C(O)(c2ccc(Br)cc2)C1 (centres undefined),"inconclusive: 29.1 µM [cytotoxic, single point]",
O=[N+]([O-])c1cccc(Nc2nc(Cl)nc(Cl)n2)c1,inactive,
CN1CCN(C(c2cccc(C(F)(F)F)c2)c2nnnn2C(C)(C)C)CC1 (centres undefined),"inconclusive: 20.6 µM [cytotoxic, single point]",

SMILES,Potency,"activity change, negative = cytotoxicity"
CCn1cc(C(=O)Nc2ccc(C)c([N+](=O)[O-])c2)cn1,"inconclusive: 20.6 µM [cytotoxic, single point]",
C[C@H]1COc2cccc(N(C)CCO)c2S(=O)(=O)N1,inactive,
CC(C)C[C@@H](CO)N(Cc1ccccc1)S(=O)(=O)N(Cc1ccccc1)[C@@H](CO)CC(C)C,"inconclusive: 18.4 µM [cytotoxic, single point] and inconclusive: 29.1 µM [cytotoxic, single point]",
Oc1c(Br)cc(Br)cc1/C=N/n1c(-c2ccccc2)n[nH]c1=S,"inconclusive: 29.1 µM [rising, single point]",
O=C(c1ccccc1)N(c1ccccc1)c1nccc2ccccc12,inactive,
Cc1cc(Cl)cc(C)c1OCCCCn1ccnc1,"inconclusive: 29.1 µM [cytotoxic, single point]",
CCn1cc(C(=O)N(C)Cc2ccccc2)c(=O)c2cc(S(=O)(=O)N3CCCCC3)ccc21,inactive,
CCN(CC)C(=O)[C@H]1C[C@H](CC(=O)NCc2ccco2)C(=O)N2CCc3c([nH]c4ccc(Cl)cc34)[C@]12C,inactive,
COCCN(Cc1cc2c(C)cc(C)cc2nc1Cl)C(=O)c1ccccc1F,"inconclusive: 29.1 µM [cytotoxic, single point]",
COc1ccccc1N1CCN(CC(=O)Nc2cc(C)nn2-c2nc(C)cc(C)n2)CC1,inactive,
NCc1csc(Nc2ccc(C(=O)c3ccccc3)cc2)n1,"inconclusive: 29.1 µM [cytotoxic, partial curve, poor fit]",
COCC(C)NC(=S)NCCc1ccc(Cl)cc1Cl (centres undefined),"inconclusive: 20.6 µM [cytotoxic, single point]",
CCOc1ccc(N2CC(C(=O)Nc3ccc4c(c3)OCO4)CC2=O)cc1 (centres undefined),inactive,
COc1ccc(OC)c(NC(=O)C2(C)CCN2C(=O)Cc2ccc(Cl)cc2Cl)c1 (centres undefined),"inconclusive: 7.31 µM [cytotoxic, partial curve]",
COc1ccc(OCC(=O)N2CCC(n3nccc3NC(=O)C3CC3)CC2)cc1,"inconclusive: 29.1 µM [rising, single point]",
CC(=O)N1CCN(C(=O)c2c(-c3ccccc3)noc2C)CC1,"inconclusive: 7.31 µM [rising, partial curve]",
O=C(CN1Cc2ccccc2C1=O)Nc1ccc2c(c1)OCCO2,inactive,
CCOC(=O)c1sc(N)c(C#N)c1CSc1nc2ccc(OCC)cc2[nH]1,"inconclusive: 16.4 µM [cytotoxic, single point]",
CCc1ccc(NC(=O)CN2C(=O)C(=O)c3ccccc32)cc1,inactive,
COc1ccc(S(=O)(=O)Nc2ccc(O)c(Sc3nc4ccccc4s3)c2)cc1,"inconclusive: 23.1 µM [cytotoxic, partial curve] and inconclusive: 18.4 µM [cytotoxic, single point]",
COc1ccc(OC)c(-c2c(=O)n(OCc3ccccc3Br)c3ccccc3[n+]2[O-])c1,"inconclusive: 7.31 µM [cytotoxic, partial curve]",
O=C(/C=C/c1ccc(S(=O)(=O)NCc2ccco2)cc1)NCc1cccc(Cl)c1,"inconclusive: 18.4 µM [cytotoxic, single point]",
Nc1nc(SCC(=O)N2CCCCC2)[nH]c(=O)c1NC(=O)c1ccccc1F,inactive,
CCCCc1c(-c2ccc(OC)c(OC)c2)ncn1CCc1ccccc1OC,active: 9.2 µM,
Cc1ccc(C(C)C)c(OCC(=O)Nc2ccc3c(c2)nc(CCN2CCCCC2)n3C)c1,"inconclusive: 23.1 µM [cytotoxic, single point]",

# Five entries from above, bar-delimited.
SMILES | Potency | activity change, negative = cytotoxicity
Cc1cc(Cl)cc(C)c1OCCCCn1ccnc1 | inconclusive: 29.1 µM [cytotoxic, single point] | 
CCOc1ccc(N2CC(C(=O)Nc3ccc4c(c3)OCO4)CC2=O)cc1 (centres undefined) | inactive | 
CCOC(=O)c1sc(N)c(C#N)c1CSc1nc2ccc(OCC)cc2[nH]1 | inconclusive: 16.4 µM [cytotoxic, single point] | 
CCc1ccc(NC(=O)CN2C(=O)C(=O)c3ccccc32)cc1 | inactive | 
CCCCc1c(-c2ccc(OC)c(OC)c2)ncn1CCc1ccccc1OC | active: 9.2 µM | 

# Next entries.

SMILES,Potency,"activity change, negative = cytotoxicity"
COc1ccccc1C1C(C(N)=O)=C(C)Nc2nc(SCc3ccccc3F)nn21 (centres undefined),"inconclusive: 29.1 µM [rising, single point]",
Cn1c(CNc2ccc(Cl)cc2)nc2ccccc21,active: 20.6 µM,
N#Cc1ccccc1COc1cccc2c1CCCC2O (centres undefined),inactive,
Cc1cc(C(=O)COC(=O)c2ccc(O)cc2)c(C)n1Cc1ccco1,inactive,
COC(=O)c1c(C)nn(-c2ccccc2)c1N,"inconclusive: 9.2 µM [rising, partial curve]",
O=C(CSc1nc2nn(-c3ccccc3)c(=O)c-2c2n1CCCCC2)Nc1ccc(F)cc1F,inactive,
COc1ccccc1/C=C/C=N/n1c(-c2ccc(F)cc2)n[nH]c1=S,,inconclusive: 16.3%
CCCNC(=O)C1(C)CCCN(Cc2ccccc2C#N)C1 (centres undefined),"inconclusive: 23.1 µM [cytotoxic, partial curve, poor fit]",
O=C(Nc1nc(-c2cccs2)c(C(=O)C(F)(F)F)s1)c1ccccc1,inactive,
CCOC(=O)C1CCc2c(ccc3ccccc23)N1CCC#N (centres undefined),"inconclusive: 20.6 µM [cytotoxic, single point]",
CCn1ncc(CN2CCCC(C(=O)Nc3cccc(-c4cc5ccccc5[nH]4)c3)C2)c1C (centres undefined),"inconclusive: 29.1 µM [cytotoxic, single point]",
O=C(NCCc1ccccc1)C(=O)NCCC1CCCCN1S(=O)(=O)c1cccs1 (centres undefined),active: 2.31 µM,
O=C(Cn1ncc2ccsc2c1=O)N1CCN(c2ccc(Cl)cc2)CC1,active: 20.6 µM,
CCc1ccccc1NC(=O)CN1CCN(C(=O)C2CCN(C(=O)/C=C/c3ccccc3)CC2)CC1,inactive,
CC(=O)Oc1ccc2ccccc2c1C(NC(=O)Cc1ccccc1)c1ccccc1Cl (centres undefined),"inconclusive: 20.6 µM [cytotoxic, single point]",
Cc1cnc(C(=O)OCc2nc3ccccc3o2)cn1,inactive,
CC(C)(C)c1nnc(NC(=O)CCS(=O)(=O)c2ccccc2)s1,inactive,
O=C(N/N=C\c1ccccn1)c1cccc(C(=O)N/N=C\c2ccccn2)n1,"inconclusive: 2.91 µM [rising, full curve, poor fit]",
CCN(CC)C(=O)CSc1nc(O)c(Cc2ccc(OC)cc2)c(=O)[nH]1,"inconclusive: 16.4 µM [cytotoxic, single point]",
CCCCC(=O)Nc1cccc(-c2nnc(-c3ccccc3)o2)c1,active: 18.4 µM,
COc1ccccc1C(=O)NCCC(=O)NCCOc1ccccc1,inactive,
CC1CCCCN1Cc1nc2c(c(=O)n(C)c(=O)n2C)n1Cc1ccc(Br)cc1 (centres undefined),inactive,
COc1ccc(Br)cc1C(=O)Nc1ccc(C(=O)O)cc1,"inconclusive: 0.82 µM [rising, partial curve, poor fit]",
O=C(CSc1nc2c(c(C(F)(F)F)n1)CCc1ccccc1-2)NCc1ccccc1,"inconclusive: 29.1 µM [cytotoxic, single point]",
